Residue numbers refer to the chain shown, from its start. Numbers in names are those of the source. Results are given in words; binding and its absence hold for the method and conditions named. Some entries that bind do so weakly or less than the wild type.
Experiments:
[1] = molecular target: TRIM72^ΔRING (84-477) (human) (UniProt Q6ZMU5); assay: AUC; sedimentation velocity of the RING deletion, tetramer fraction (Supplementary Fig. 5h, i); dimers to tetramer; both purified
TRIM72 I95A (human) = TRIM72 I95A (human) (UniProt Q6ZMU5); assay: SEC-MALS; series of protein concentrations; Superdex 200 increase, 20 mM Tris-HCl pH 8.0, 200 mM NaCl, 0.3 mM TCEP; dimers to tetramer; both purified
[2] = molecular target: full-length human TRIM72 protein (2-477) (human) (UniProt Q6ZMU5); assay: as above
[3] = molecular target: TRIM72 SPRY (278-477) (human) (UniProt Q6ZMU5); assay: AUC + SEC-MALS; deletion constructs of TRIM72 in solution; 20 mM Tris-HCl pH 8.0, 200 mM NaCl, 0.3 mM TCEP; both purified

B1: TRIM72^ΔRING (84-477) (domain or fragment, human, UniProt Q6ZMU5-1 84-477, looked up)
chain: GHCEEHLDPLSIYCEQDRALVCGVCASLGSHRGHRLLPAAEAHARLKTQLPQQKLQLQEACMRKEKSVAVLEHQLVEVEETVRQFRGAVGEQLGKMRVFLAALEGSLDREAERVRGEAGVALRRELGSLNSYLEQLRQMEKVLEEVADKPQTEFLMKYCLVTSRLQKILAESPPPARLDIQLPIISDDFKFQVWRKMFRALMPALEELTFDPSSAHPSLVVSSSGRRVECSEQKAPPAGEDPRQFDKAVAVVAHQQLSEGEHYWEVDVGDKPRWALGVIAAEAPRRGRLHAVPSQGLWLLGLREGKILEAHVEAKEPRALRSPERRPTRIGLYLSFGDGVLSFYDASDADALVPLFAFHERLPRPVYPFFDVCWHDKGKNAQPLLLVGPEGAEA
notes: TRIM72, human, residues 84-477 (B-box, coiled-coil, SPRY); also called RING deletion; source: E. coli Rosetta (DE3), purified; not shown: His-Sumo, N-terminal, cleaved
B1 was tested, and the binding [1] was “binds weakly”.

B2: TRIM72 I95A (natural protein, human, UniProt Q6ZMU5-1 2-477, looked up)
chain: SAAPGLLHQELSCPLCLQLFDAPVTAECGHSFCRACLGRVAGEPAADGTVLCPCCQAPTRPQALSTNLQLARLVEGLAQVPQGHCEEHLDPLSAYCEQDRALVCGVCASLGSHRGHRLLPAAEAHARLKTQLPQQKLQLQEACMRKEKSVAVLEHQLVEVEETVRQFRGAVGEQLGKMRVFLAALEGSLDREAERVRGEAGVALRRELGSLNSYLEQLRQMEKVLEEVADKPQTEFLMKYCLVTSRLQKILAESPPPARLDIQLPIISDDFKFQVWRKMFRALMPALEELTFDPSSAHPSLVVSSSGRRVECSEQKAPPAGEDPRQFDKAVAVVAHQQLSEGEHYWEVDVGDKPRWALGVIAAEAPRRGRLHAVPSQGLWLLGLREGKILEAHVEAKEPRALRSPERRPTRIGLYLSFGDGVLSFYDASDADALVPLFAFHERLPRPVYPFFDVCWHDKGKNAQPLLLVGPEGAEA
notes: TRIM72, human, residues 2-477, point mutant in the B-box; also called I95A mutant; source: E. coli Rosetta (DE3), purified; not shown: His-Sumo, N-terminal, cleaved
B2 was tested, and the binding (TRIM72 I95A (human)) was “binds weakly”.

B3: full-length human TRIM72 protein (2-477) (natural protein, UniProt Q6ZMU5-1 2-477, looked up)
chain: B2 chain with A94I
notes: TRIM72 (MG53), human, residues 2-477; open reading frame of GenBank NM_001008274.4; A dimer in solution at low concentration; the RING domain is not seen in the crystal structure although the full-length protein was crystallised; also called MG53; Tripartite Motif Protein 72; source: E. coli Rosetta (DE3), purified (nickel column, Source Q, Superdex 200 increase); not shown: His-Sumo, N-terminal, …
With B3 the binding [2] was “binds weakly”.

B4: TRIM72 SPRY (278-477) (domain or fragment, UniProt Q6ZMU5-1 278-477)
chain: RKMFRALMPALEELTFDPSSAHPSLVVSSSGRRVECSEQKAPPAGEDPRQFDKAVAVVAHQQLSEGEHYWEVDVGDKPRWALGVIAAEAPRRGRLHAVPSQGLWLLGLREGKILEAHVEAKEPRALRSPERRPTRIGLYLSFGDGVLSFYDASDADALVPLFAFHERLPRPVYPFFDVCWHDKGKNAQPLLLVGPEGAEA
In the case of B4, the binding [3] is reported as “no binding”.

Source: article PMC10030467 (Nature Communications, 2023)
